The source of these data is article PMC10823351.

Assay [1] addresses T1, Ubiquitin-specific protease 38 (mouse (endogenous in HL-1)) (UniProt Q8BW70).
T1 sequence: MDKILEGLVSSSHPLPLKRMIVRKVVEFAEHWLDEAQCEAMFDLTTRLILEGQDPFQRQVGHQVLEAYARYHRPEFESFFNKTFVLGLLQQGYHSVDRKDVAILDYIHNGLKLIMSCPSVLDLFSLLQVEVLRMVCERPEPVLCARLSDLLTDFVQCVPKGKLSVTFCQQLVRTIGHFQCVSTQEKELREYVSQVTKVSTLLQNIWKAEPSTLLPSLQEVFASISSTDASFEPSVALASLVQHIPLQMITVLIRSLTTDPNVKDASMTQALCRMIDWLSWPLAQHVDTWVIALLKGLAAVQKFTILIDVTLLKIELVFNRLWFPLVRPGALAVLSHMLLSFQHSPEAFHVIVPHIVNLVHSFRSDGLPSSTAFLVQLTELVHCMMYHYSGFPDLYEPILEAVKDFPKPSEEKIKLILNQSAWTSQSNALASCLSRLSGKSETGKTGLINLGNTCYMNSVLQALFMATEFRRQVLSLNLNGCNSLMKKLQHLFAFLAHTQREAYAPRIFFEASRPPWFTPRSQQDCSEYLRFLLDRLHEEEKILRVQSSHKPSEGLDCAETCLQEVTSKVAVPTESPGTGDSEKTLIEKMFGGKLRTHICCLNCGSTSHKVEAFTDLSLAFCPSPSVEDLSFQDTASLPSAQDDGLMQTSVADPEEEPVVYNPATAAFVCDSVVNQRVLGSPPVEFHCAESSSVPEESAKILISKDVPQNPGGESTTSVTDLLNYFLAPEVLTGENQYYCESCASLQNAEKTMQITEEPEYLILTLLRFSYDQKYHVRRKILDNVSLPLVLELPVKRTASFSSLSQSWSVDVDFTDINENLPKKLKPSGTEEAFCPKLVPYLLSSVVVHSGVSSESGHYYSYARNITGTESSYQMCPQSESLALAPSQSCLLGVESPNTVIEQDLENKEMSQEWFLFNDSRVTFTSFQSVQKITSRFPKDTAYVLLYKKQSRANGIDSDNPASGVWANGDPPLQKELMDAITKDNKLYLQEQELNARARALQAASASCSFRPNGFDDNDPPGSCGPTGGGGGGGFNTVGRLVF
Kind of assay: co-IP; endogenous proteins; lysates of HL-1 cells treated with Ang II (1 μM) for 48 h; incubated overnight at 4 °C with anti-USP38, anti-NF-κB or anti-IgG antibodies, magnetic beads, western blot. Background: In western blotting, separated proteins are transferred to a membrane and probed.

For assay [2], the target named is nuclear factor-kappa B (mouse (endogenous in HL-1)). Described as above.

Results are given in words; binding and its absence hold for the method and conditions named. Binding seen in cells or lysates may run through a third protein. Binding can be weak; no strength is given.

“nuclear factor-kappa B (mouse (endogenous in HL-1))”: in assay [1], the binding result is on record as “binds”.

B1: Ubiquitin-specific protease 38 (enzyme, UniProt Q8BW70 1-1042)
chain: MDKILEGLVSSSHPLPLKRMIVRKVVEFAEHWLDEAQCEAMFDLTTRLILEGQDPFQRQVGHQVLEAYARYHRPEFESFFNKTFVLGLLQQGYHSVDRKDVAILDYIHNGLKLIMSCPSVLDLFSLLQVEVLRMVCERPEPVLCARLSDLLTDFVQCVPKGKLSVTFCQQLVRTIGHFQCVSTQEKELREYVSQVTKVSTLLQNIWKAEPSTLLPSLQEVFASISSTDASFEPSVALASLVQHIPLQMITVLIRSLTTDPNVKDASMTQALCRMIDWLSWPLAQHVDTWVIALLKGLAAVQKFTILIDVTLLKIELVFNRLWFPLVRPGALAVLSHMLLSFQHSPEAFHVIVPHIVNLVHSFRSDGLPSSTAFLVQLTELVHCMMYHYSGFPDLYEPILEAVKDFPKPSEEKIKLILNQSAWTSQSNALASCLSRLSGKSETGKTGLINLGNTCYMNSVLQALFMATEFRRQVLSLNLNGCNSLMKKLQHLFAFLAHTQREAYAPRIFFEASRPPWFTPRSQQDCSEYLRFLLDRLHEEEKILRVQSSHKPSEGLDCAETCLQEVTSKVAVPTESPGTGDSEKTLIEKMFGGKLRTHICCLNCGSTSHKVEAFTDLSLAFCPSPSVEDLSFQDTASLPSAQDDGLMQTSVADPEEEPVVYNPATAAFVCDSVVNQRVLGSPPVEFHCAESSSVPEESAKILISKDVPQNPGGESTTSVTDLLNYFLAPEVLTGENQYYCESCASLQNAEKTMQITEEPEYLILTLLRFSYDQKYHVRRKILDNVSLPLVLELPVKRTASFSSLSQSWSVDVDFTDINENLPKKLKPSGTEEAFCPKLVPYLLSSVVVHSGVSSESGHYYSYARNITGTESSYQMCPQSESLALAPSQSCLLGVESPNTVIEQDLENKEMSQEWFLFNDSRVTFTSFQSVQKITSRFPKDTAYVLLYKKQSRANGIDSDNPASGVWANGDPPLQKELMDAITKDNKLYLQEQELNARARALQAASASCSFRPNGFDDNDPPGSCGPTGGGGGGGFNTVGRLVF
With B1, the binding entry in assay [2] is “binds”.
